Experimental data: US20190010245A1
These are yes or no findings as the source states them, for the method shown. Some results given as binding are weak or reduced against the parent protein; the word gives no strength.

The chains behind the UniProt entries cited, without tags or fusion partners. Where a name states a change or a piece, a line headed by the entry shows the natural chain unless it says otherwise.
UniProt Q01705: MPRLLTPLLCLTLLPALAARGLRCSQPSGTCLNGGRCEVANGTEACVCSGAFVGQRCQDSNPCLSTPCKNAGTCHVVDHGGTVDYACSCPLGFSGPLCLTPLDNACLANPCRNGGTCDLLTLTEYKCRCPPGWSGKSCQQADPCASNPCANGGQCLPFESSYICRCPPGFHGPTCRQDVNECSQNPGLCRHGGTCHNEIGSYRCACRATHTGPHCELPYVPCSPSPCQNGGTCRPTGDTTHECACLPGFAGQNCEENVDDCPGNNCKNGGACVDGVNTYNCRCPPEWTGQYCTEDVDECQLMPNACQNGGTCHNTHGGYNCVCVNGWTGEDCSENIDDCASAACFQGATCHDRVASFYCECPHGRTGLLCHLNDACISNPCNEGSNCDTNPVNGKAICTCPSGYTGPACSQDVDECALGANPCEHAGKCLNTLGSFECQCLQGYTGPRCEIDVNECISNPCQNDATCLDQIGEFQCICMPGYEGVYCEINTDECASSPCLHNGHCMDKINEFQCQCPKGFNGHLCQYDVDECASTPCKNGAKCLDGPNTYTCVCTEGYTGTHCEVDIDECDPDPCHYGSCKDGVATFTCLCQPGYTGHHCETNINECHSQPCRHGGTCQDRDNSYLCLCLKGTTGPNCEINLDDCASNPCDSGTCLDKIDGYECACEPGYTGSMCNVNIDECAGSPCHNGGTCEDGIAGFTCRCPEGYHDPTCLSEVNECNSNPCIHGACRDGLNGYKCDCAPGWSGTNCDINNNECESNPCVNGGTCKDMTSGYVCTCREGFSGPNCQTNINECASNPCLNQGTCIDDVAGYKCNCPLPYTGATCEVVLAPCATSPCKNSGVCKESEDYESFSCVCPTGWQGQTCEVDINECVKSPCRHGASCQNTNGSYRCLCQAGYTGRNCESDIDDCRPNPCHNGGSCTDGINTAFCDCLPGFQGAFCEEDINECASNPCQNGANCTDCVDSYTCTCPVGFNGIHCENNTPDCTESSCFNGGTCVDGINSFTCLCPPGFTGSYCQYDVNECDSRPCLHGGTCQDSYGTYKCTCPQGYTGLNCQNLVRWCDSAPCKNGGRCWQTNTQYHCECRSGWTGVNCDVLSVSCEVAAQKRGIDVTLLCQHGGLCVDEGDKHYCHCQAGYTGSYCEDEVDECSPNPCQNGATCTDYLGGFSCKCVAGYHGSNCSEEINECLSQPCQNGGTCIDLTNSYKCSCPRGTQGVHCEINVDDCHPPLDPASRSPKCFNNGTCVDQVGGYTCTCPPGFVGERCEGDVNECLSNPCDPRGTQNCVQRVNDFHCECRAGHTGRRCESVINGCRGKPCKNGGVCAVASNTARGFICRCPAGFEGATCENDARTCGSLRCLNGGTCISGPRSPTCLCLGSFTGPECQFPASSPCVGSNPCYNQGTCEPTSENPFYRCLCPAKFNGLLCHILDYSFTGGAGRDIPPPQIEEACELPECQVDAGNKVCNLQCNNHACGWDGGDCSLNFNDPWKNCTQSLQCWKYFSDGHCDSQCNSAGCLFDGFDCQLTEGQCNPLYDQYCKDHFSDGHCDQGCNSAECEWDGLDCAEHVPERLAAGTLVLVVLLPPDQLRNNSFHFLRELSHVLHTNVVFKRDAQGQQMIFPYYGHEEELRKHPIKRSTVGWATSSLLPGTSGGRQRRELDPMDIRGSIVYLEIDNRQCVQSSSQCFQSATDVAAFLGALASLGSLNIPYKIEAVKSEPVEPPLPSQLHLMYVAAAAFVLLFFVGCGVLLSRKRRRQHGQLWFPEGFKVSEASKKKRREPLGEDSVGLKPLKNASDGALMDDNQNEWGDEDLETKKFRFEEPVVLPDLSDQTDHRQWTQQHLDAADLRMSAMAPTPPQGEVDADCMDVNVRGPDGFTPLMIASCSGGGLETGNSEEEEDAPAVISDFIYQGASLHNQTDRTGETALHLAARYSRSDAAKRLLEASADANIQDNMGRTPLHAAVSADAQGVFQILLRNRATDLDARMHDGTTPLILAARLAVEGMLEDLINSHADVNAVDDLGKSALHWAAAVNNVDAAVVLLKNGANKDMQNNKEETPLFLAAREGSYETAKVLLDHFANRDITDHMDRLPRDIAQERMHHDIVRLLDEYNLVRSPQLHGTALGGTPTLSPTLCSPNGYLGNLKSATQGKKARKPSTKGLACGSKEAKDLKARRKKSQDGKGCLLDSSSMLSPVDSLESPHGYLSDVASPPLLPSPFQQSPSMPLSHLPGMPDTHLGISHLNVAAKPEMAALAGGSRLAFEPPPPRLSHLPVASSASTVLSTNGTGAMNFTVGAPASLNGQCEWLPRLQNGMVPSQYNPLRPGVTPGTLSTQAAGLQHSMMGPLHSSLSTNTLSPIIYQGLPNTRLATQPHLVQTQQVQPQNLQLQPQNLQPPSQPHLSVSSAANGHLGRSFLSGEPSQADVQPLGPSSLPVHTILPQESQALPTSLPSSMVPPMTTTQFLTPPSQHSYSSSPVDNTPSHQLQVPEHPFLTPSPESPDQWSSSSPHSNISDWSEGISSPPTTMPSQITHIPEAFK

Target: NRR of the SynNotch receptors of Example 4 (mouse) (UniProt Q01705)
Experiment: inferred from the loss of anti-NRR antibody staining on HeLa cells expressing the sNRR receptor (FIG. 32A); intramolecular

B1: Ab2 scFv integrated in the receptor as LNR4 / sNRR domain (scFv)
scFv: EVQLVESGGGLVQPGGSLRLSCAASGFTFSSYWIHWVRQAPGKGLEWVARINPPNRSNQYADSVKGRFTISADTSKNTAYLQMNSLRAEDTAVYYCARGSGFRWVMDYWGQGTLVTVSSGGSSRSSSSGGGGSGGGGDIQMTQSPSSLSASVGDRVTITCRASQDVSTAVAWYQQKPGKAPKLLIYSASFLYSGVPSRFSGSGSGTDFTLTISSLQPEDFATYYCQQFYTTPSTFGQGTKVEIK
  binding: binds
